These results are taken from the supplement of paper PMC12024529.

The subject of one assay is HEK293 WT BDD-FVIII-Gluc. Description: secreted FVIII-Gluc luciferase Z-score vs DMSO control; higher = more FVIII-Gluc secretion. The conditions noted are these: 5 µM; 24 h.
Assay [1] deals with HEK293 p.N1941S BDD-FVIII-Gluc. Described as above. As to conditions: 5 µM; 24 h.

Structures can show the parent of a compound that is named as a salt. The list shows a part of the results. Part of the spread comes from offsets between plates or batches.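 The cells are HEK293 lines stably expressing B-domain-deleted factor VIII fused to Gaussia luciferase, either wild type or a misfolding-prone missense mutant. Each score is mean luminescence from triplicate wells minus the DMSO mean, divided by the DMSO standard deviation; a score of 2 or more counts as a hit, and low scores may reflect lower secretion or poorer cell viability.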

`CCN(CC)CCOC(=O)c1ccc(N)cc1` [Procaine (Novocaine) HCl]: the “secreted FVIII-Gluc luciferase Z-score” value is inactive: 0.0349 with HEK293 WT BDD-FVIII-Gluc and inactive: 0.217 in assay [1].

As to `CC(=O)Oc1ccc(C(c2ccc(OC(C)=O)cc2)c2ccccn2)cc1` [Bisacodyl], the “secreted FVIII-Gluc luciferase Z-score” value is inactive: -0.87 in the assay with HEK293 WT BDD-FVIII-Gluc and inactive: -1.13 in assay [1].

For the molecule `CC(C)CC(N)=O` [Isovaleramide], the “secreted FVIII-Gluc luciferase Z-score” value in the assay on HEK293 WT BDD-FVIII-Gluc was inactive: -0.987; in assay [1], inactive: 1.08.

`Cc1ccc(-n2[nH]c(C)c(N=Nc3cccc(-c4cccc(C(=O)O)c4)c3O)c2=O)cc1C`: the entries for the “secreted FVIII-Gluc luciferase Z-score” value (in the assay with HEK293 WT BDD-FVIII-Gluc; in assay [1]) were inactive: -0.116 and inactive: -1.03, respectively.

On to `C=CC[N+]1([C@H]2C[C@H]3[C@@H]4CC[C@H]5C[C@H](O)[C@@H](N6CCOCC6)C[C@]5(C)[C@H]4CC[C@]3(C)[C@H]2OC(C)=O)CCCC1` [Rocuronium bromide], for which the “secreted FVIII-Gluc luciferase Z-score” value is inactive: -11.5 with HEK293 WT BDD-FVIII-Gluc and inactive: -0.54 in assay [1].

For the molecule `O=S(=O)(O)c1cc(O)ccc1O` [Ethamsylate], the “secreted FVIII-Gluc luciferase Z-score” value in the assay with HEK293 WT BDD-FVIII-Gluc was inactive: 1.66; in assay [1] it was inactive: -0.0769.

For the molecule `O=C(O)C[C@H](O)C[C@H](O)/C=C/c1c(C2CC2)nc2ccccc2c1-c1ccc(F)cc1` [Pitavastatin calcium (Livalo)], the “secreted FVIII-Gluc luciferase Z-score” value in the assay with HEK293 WT BDD-FVIII-Gluc is inactive: -7.76; in assay [1], inactive: -4.25.

As to `CC(C)(C)c1cc(C(C)(C)C)c(NC(=O)c2c[nH]c3ccccc3c2=O)cc1O` [Ivacaftor (VX-770)], the “secreted FVIII-Gluc luciferase Z-score” value was inactive: 1.52 with HEK293 WT BDD-FVIII-Gluc and inactive: -3.49 in assay [1].

In the case of `CC(=O)OCC(=O)[C@@]12OC(C)(C)O[C@@H]1C[C@H]1[C@@H]3C[C@H](F)C4=CC(=O)C=C[C@]4(C)[C@@]3(F)[C@@H](O)C[C@@]12C` [Fluocinonide (Vanos)], the “secreted FVIII-Gluc luciferase Z-score” value in the assay with HEK293 WT BDD-FVIII-Gluc is active: 12.3; in assay [1], active: 2.92.

As to `CC[N+](CC)(CC)CCOc1cccc(OCC[N+](CC)(CC)CC)c1OCC[N+](CC)(CC)CC` [Gallamine triethiodide (Flaxedil)], the figures for the “secreted FVIII-Gluc luciferase Z-score” value (with HEK293 WT BDD-FVIII-Gluc; in assay [1]) were inactive: -0.214 and inactive: 0.752, respectively.

As to `CC[C@@H]1/C=C(\C)C[C@H](C)C[C@H](OC)[C@H]2O[C@@](O)(C(=O)C(=O)N3CCCC[C@H]3C(=O)O[C@H](/C(C)=C/[C@@H]3CC[C@H](Cl)[C@H](OC)C3)[C@H](C)[C@@H](O)CC1=O)[C@H](C)C[C@@H]2OC` [Pimecrolimus], the “secreted FVIII-Gluc luciferase Z-score” value with HEK293 WT BDD-FVIII-Gluc was inactive: -2.31; in assay [1] it was inactive: -1.48.

Consider `C[C@H]1O[C@H](O[C@H]2[C@H](O)[C@@H](O)[C@@H](O[C@H]3[C@H](O)[C@@H](O)C(O)O[C@@H]3CO)O[C@@H]2CO)[C@H](O)[C@@H](O)[C@@H]1N[C@H]1C=C(CO)[C@@H](O)[C@H](O)[C@H]1O` (stereo not given in full) [Acarbose], for which the “secreted FVIII-Gluc luciferase Z-score” value was inactive: 0.0249 in the assay with HEK293 WT BDD-FVIII-Gluc and inactive: -0.981 in assay [1].

As for `CC[C@]1(O)C[C@@H]2CN(CCc3c([nH]c4ccccc34)[C@@](C(=O)OC)(c3cc4c(cc3OC)N(C)[C@H]3[C@@](O)(C(=O)OC)[C@H](OC(C)=O)[C@]5(CC)C=CCN6CC[C@]43[C@@H]65)C2)C1` [Vinblastine sulfate], the “secreted FVIII-Gluc luciferase Z-score” value was inactive: -4.43 in the assay with HEK293 WT BDD-FVIII-Gluc and inactive: -5.12 in assay [1].

`Nc1c(CC(=O)O)cccc1C(=O)c1ccccc1` [Amfenac Sodium (monohydrate)]: the results for the “secreted FVIII-Gluc luciferase Z-score” value (in the assay with HEK293 WT BDD-FVIII-Gluc; in assay [1]) were inactive: 1.11 and inactive: -1.79, respectively.

In the case of `CCCCC(=O)O[C@]1(C(=O)CO)[C@@H](C)C[C@H]2[C@@H]3CCC4=CC(=O)C=C[C@]4(C)[C@@]3(F)[C@@H](O)C[C@@]21C` [Betamethasone valerate (Betnovate)], the “secreted FVIII-Gluc luciferase Z-score” value in the assay on HEK293 WT BDD-FVIII-Gluc is active: 8.74; in assay [1], active: 5.95.

For `COc1c(C)c2c(c(O)c1C/C=C(\C)CCC(=O)O)C(=O)OC2` [Mycophenolic (Mycophenolate)], the entries for the “secreted FVIII-Gluc luciferase Z-score” value (with HEK293 WT BDD-FVIII-Gluc; in assay [1]) were inactive: -4.55 and inactive: -6.61, respectively.

Take `OC1(c2ccc(Cl)c(C(F)(F)F)c2)CCN(CCCC(c2ccc(F)cc2)c2ccc(F)cc2)CC1` [Penfluridol]: the “secreted FVIII-Gluc luciferase Z-score” value was inactive: -0.0748 with HEK293 WT BDD-FVIII-Gluc and inactive: -1.71 in assay [1].

As for `COc1c(N2CCNC(C)C2)c(F)cc2c(=O)c(C(=O)O)cn(C3CC3)c12` (stereo not given) [Gatifloxacin], the entries for the “secreted FVIII-Gluc luciferase Z-score” value (in the assay on HEK293 WT BDD-FVIII-Gluc; in assay [1]) were inactive: -4.32 and inactive: -2.53, respectively.

`NNC(=O)c1ccncc1.Nc1ccc(C(=O)O)c(O)c1` [Pasiniazid]: the “secreted FVIII-Gluc luciferase Z-score” value was inactive: -1.57 in the assay on HEK293 WT BDD-FVIII-Gluc and inactive: 1.41 in assay [1].

For `CN1CCN2c3ccccc3Cc3ccccc3C2C1` (stereo not given) [Mianserin hydrochloride], the “secreted FVIII-Gluc luciferase Z-score” value in the assay on HEK293 WT BDD-FVIII-Gluc was inactive: -5.58; in assay [1], inactive: -0.256.

In the case of `Fc1ccc([C@@H]2CCNC[C@H]2COc2ccc3c(c2)OCO3)cc1` [Paroxetine HCl], the entries for the “secreted FVIII-Gluc luciferase Z-score” value (with HEK293 WT BDD-FVIII-Gluc; in assay [1]) were inactive: -4.31 and inactive: -0.711, respectively.

As to `COc1c2occc2cc2ccc(=O)oc12` [Methoxsalen (Oxsoralen)], the “secreted FVIII-Gluc luciferase Z-score” value is inactive: -2.34 in the assay with HEK293 WT BDD-FVIII-Gluc and inactive: -0.794 in assay [1].

As to `COc1cc(C(C)=O)ccc1OCCCN1CCC(c2noc3cc(F)ccc23)CC1` [Iloperidone (Fanapt)], the “secreted FVIII-Gluc luciferase Z-score” value with HEK293 WT BDD-FVIII-Gluc is inactive: -4.96; in assay [1] it was inactive: -0.944.

For `COc1cc(OC)c(C(=O)CCCN2CCCC2)c(OC)c1` [Buflomedil HCl], the “secreted FVIII-Gluc luciferase Z-score” value was inactive: -1.73 in the assay with HEK293 WT BDD-FVIII-Gluc and inactive: -0.214 in assay [1].

With `O=C(C1CCCCC1)N1CC(=O)N2CCc3ccccc3C2C1` (stereo not given) [Praziquantel (Biltricide)], the “secreted FVIII-Gluc luciferase Z-score” value is inactive: -2.19 in the assay with HEK293 WT BDD-FVIII-Gluc and inactive: 0.592 in assay [1].
